Experimental data from PubChem BioAssay AID1983 (National Center for Advancing Translational Sciences (NCATS), 2009).
Inconclusive results, whose numbers are uncertain, are shown with a selection of clear calls. Where the call is inconclusive, the potency comes from a doubtful curve fit. Activity calls are given as the source filed them. Calls follow the shape of the dose curve; as a rule, active = well fitted inhibition curve with a large enough effect; inconclusive = small, poorly fitted or top-dose-only effect; inactive = flat fitted curve, though single readings scatter.

Amino acid sequences for entries named in this document (tags omitted). A change or cut given only in a name is not applied to a line headed by its entry.
UniProt Q9HAZ1: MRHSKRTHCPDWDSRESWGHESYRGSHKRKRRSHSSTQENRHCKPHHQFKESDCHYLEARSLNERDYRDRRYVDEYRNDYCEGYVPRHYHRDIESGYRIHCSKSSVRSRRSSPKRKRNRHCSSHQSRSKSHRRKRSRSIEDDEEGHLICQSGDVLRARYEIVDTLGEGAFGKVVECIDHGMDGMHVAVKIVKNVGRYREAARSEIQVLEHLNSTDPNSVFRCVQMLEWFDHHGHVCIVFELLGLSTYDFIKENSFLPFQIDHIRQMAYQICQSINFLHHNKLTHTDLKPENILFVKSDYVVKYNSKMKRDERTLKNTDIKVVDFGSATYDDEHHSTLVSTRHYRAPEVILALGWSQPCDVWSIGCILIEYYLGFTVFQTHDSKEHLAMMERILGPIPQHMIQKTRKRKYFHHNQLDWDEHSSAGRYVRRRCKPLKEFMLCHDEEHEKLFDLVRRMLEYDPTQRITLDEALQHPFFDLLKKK

Each compound was assayed against Dual specificity protein kinase CLK4 (Homo sapiens) (UniProt Q9HAZ1) (assay: Confirmation Assay for Inhibitors of CDC-like Kinase 4 (ADP-FP Assay)). Conditions: recombinant Clk4, ADP Transcreener FP, RS peptide; series mostly up to 80 µM; activity, negative = inhibition: at the top concentration.
Protocol: NIH Molecular Libraries Probe Production Centers Network [MLPCN] NIH Chemical Genomics Center [NCGC] MLPCN Grant: 1R03MH084827-01 Assay Submitter (PI): Tom Misteli NCGC Assay Overview: Clk4 (Invitrogen cat # PV3839) was assayed using ATP and the RS repeat peptide (AnaSpec cat # 61722) as substrates using Transcreener (trade mark), a competitive fluorescence polarization (FP) assay. For the present assay, we used the Orange TranscreenerTM ADP2 (BellBrooks Labs, Madison, Wis) detection system to monitor ADP production in the kinase reaction. […] This allows the ADP tracer to freely rotate leading to a decrease in the observed FP value. The amount of ADP produced can then be calculated using a calibration curve. The positive control for the assay was TG003 (Sigma-Aldrich, cat # 300801-52-9) which is a Clk4 inhibitor [2].
NCGC Assay Protocol Summary: Two uL/well of substrate-buffer solution (100 uM RS peptide, 1 uM ATP, 25 mM Tris pH7.5, 10 mM MgCl2, 0.5 mM EGTA, 2.5 mM DTT, 0.01% Triton X-100 final concentration) was dispensed into 1,536-well assay plates (Greiner, solid black medium-binding plates) with Aurora Discovery BioRAPTR Flying Reagent Dispenser (FRD; Beckton-Dickenson). Using a Kalypsys pin tool equipped with a 1,536-pin tool, 23 nL of compound solution was transferred to the assay plate. Two uL/well Clk4-buffer solution (6.25 nM Clk4, 25 mM Tris pH 7.5, 10 mM MgCl2, 0.5 mM EGTA, 2.5 mM DTT, 0.01% Triton X-100, final concentration) was then added using the FRD yielding a total kinase reaction volume of 4 uL/ well. Then 4 uL/well of detection mixture (4 nM orange fluorescent tracer, 1 ug/mL ADP antibody, final concentration) was then added after an hour and the polarization signal was measured using the EnVision plate reader (PerkinElmer, Waltham, MA) after 30 min of room temperature incubation using the following filters and program settings: BODIPY TMR FP dual Enh mirror (barcode 682); BODIPY-TMR 531 (barcode 105) excitation; BODIPY-TMR FP P/S polarized 595 nm filters (barcodes 210 and 211, respectively); 100% light; 150 flashes; 1.35 G-factor; Detector gains were 685 for the 1st detector; 630 for the 2nd detector.

Structure (SMILES) | Potency | activity, negative = inhibition
c1cncc(CNc2ncnc3ccc(-c4ccc5c(c4)OCCO5)cc23)c1 | active: 0.708 µM | –
Cn1ccc2cc(-c3ccc4ncnc(NCc5cccc(F)c5)c4c3)ccc21 | inconclusive: 39.8 µM [falling, single point] | –
Cc1cccc(CNc2ncnc3ccc(-c4ccc5c(c4)OCO5)cc23)c1 | active: 0.1 µM | –
Cc1cccc(CNc2ncnc3ccc(-c4ccccc4Cl)cc23)c1 | inconclusive: 8.91 µM [falling, full curve] | –
c1nc(NCc2ccc3c(c2)OCO3)c2cc(-c3ccc4c(c3)OCCO4)ccc2n1 | active: 2.24 µM | –
Cc1csc(CNc2ncnc3ccc(-c4ccccc4Cl)cc23)c1 | inconclusive: 11.2 µM [falling, full curve] | –
Cc1csc(CNc2ncnc3ccc(-c4cccc(Cl)c4)cc23)c1 | inconclusive: 7.94 µM [falling, full curve] | –
Clc1ccccc1-c1ccc2ncnc(NCc3cccnc3)c2c1 | inconclusive: 12.6 µM [falling, full curve] | –
Clc1cccc(-c2ccc3ncnc(NCc4ccc5c(c4)OCO5)c3c2)c1 | inconclusive: 8.91 µM [falling, full curve] | –
Clc1cccc(-c2ccc3ncnc(NCc4cccnc4)c3c2)c1 | inconclusive: 4.47 µM [falling, full curve] | –
CN(Cc1ccco1)c1ncnc2ccc(-c3ccc4c(ccn4C)c3)cc12 | inconclusive: 25.1 µM [falling, partial curve] | –
c1nc(NCc2ccc3c(c2)OCO3)c2cc(-c3ccoc3)ccc2n1 | active: 0.891 µM | –
Cc1cccc(CNc2ncnc3ccc(-c4ccc5c(ccn5C)c4)cc23)c1 | inconclusive: 35.5 µM [falling, partial curve] | –
Cc1cccc(CNc2ncnc3ccc(-c4cccc(Cl)c4)cc23)c1 | inconclusive: 17.8 µM [falling, full curve] | –
Clc1ccccc1-c1ccc2ncnc(NCc3ccc4c(c3)OCO4)c2c1 | – | inactive: -16.6%
Cc1cccc(CNc2ncnc3ccc(-c4cccc(C)c4)cc23)c1 | inconclusive: 7.08 µM [falling, full curve] | –
Cc1cccc(-c2ccc3ncnc(NCc4cc(C)cs4)c3c2)c1 | inconclusive: 28.2 µM [falling, full curve] | –
Cn1ccc2cc(-c3ccc4ncnc(NCc5cccs5)c4c3)ccc21 | inconclusive: 28.2 µM [falling, partial curve] | –
Clc1ccccc1-c1ccc2ncnc(NCc3cccs3)c2c1 | inconclusive: 7.08 µM [falling, full curve] | –

A section from further up:
Structure (SMILES) | Potency | activity, negative = inhibition
Clc1cccc(-c2ccc3ncnc(NCc4ccc5c(c4)OCO5)c3c2)c1 | inconclusive: 8.91 µM [falling, full curve] | –
Clc1cccc(-c2ccc3ncnc(NCc4cccnc4)c3c2)c1 | inconclusive: 4.47 µM [falling, full curve] | –
